Inconclusive means that the source gave no clear call. Such entries were picked first, then a sample of the others. Potencies of inconclusive entries are doubtful fits and often do not repeat. Active and inactive are the calls of the source. The call rests on the fitted dose curve; in most records, active means well fitted activation curve with a large enough effect; inconclusive means small, poorly fitted or top-dose-only effect; inactive means flat fitted curve, though single readings scatter.
assay: Extended Characterization of HPGD Inhibitors: PGE2 Assay in A549 Cells; conditions: PGE2 HTRF level, 16 h; PGE2 level, % of control: at 46.1 µM (top of the series)
Source text: The central role of HPGD is to inactivate prostaglandins such as prostaglandin E2 (PGE2) or prostaglandin D2 (PGD2). These prostaglandins are involved in a number of processes, including inflammation, differentiation, and cellular signaling, which makes HPGD an important target for pharmacological intervention. A number of prostaglandins of particular biological interest have been identified as substrates of HPGD. […] Over-production of PGE2 has been reported to promote tumor-associated neovascularization, cell proliferation, and tumor growth. […] In this orthogonal assay, we set out to measure if compounds were able to increase PGE2 production NIH Chemical Genomics Center [NCGC] NIH Molecular Libraries Probe Centers Network [MLPCN] MLPCN Grant: MH084681 Assay Submitter (PI): Structural Genomics Consortium
A549 cells, LNCaP cells or media were dispensed in 384-well plates (ProxiPlate-384 Plus, PerkinElmer, Shelton, CT) at 5,000 cells/9.9 uL/well using a CappAero384 multichannel pipette (Odense, Denmark). Separately on the plate, 10 uL of PGE2 calibration standards at a starting assay concentration of 5,000 pg/mL (1:2 dilution, 12-points, n = 1, prepared in media, Cisbio, Bedford, MA) were dispensed. Compounds (100 nL, final concentration range from 41.9 nM to 100 uM) were transferred using an ATS Acoustic Liquid Dispenser (EDC Biosystems, Fremont, CA). After being mixed using an automated liquid handler (CyBio, Jena, Germany), samples were incubated (37 deg C, 5% CO2, under a humidified atmosphere) for 16 hours. PGE2 labeled conjugates were added to each well, first 5 uL of PGE2-d2, followed by 5 uL of anti-PGE2-cryptate, centrifuged (1,500 rpm, 15 sec) and incubated (RT, protected from light) for 5 hours. Time-resolved fluorescence intensity (320 nm excitation, 615 and 665 nm emission) was measured using an Envision plate reader (PerkinElmer). Data was expressed as the ratio of 665 nm/615 nm emissions. Concentration (pg/mL) of samples were calculated from a 4-parameter logistic calibration curves of the PGE2 standards.

SMILES | Potency | PGE2 level, % of control
Cc1cccc(-n2cnc3cc(C(=O)N4CCC(C(F)(F)F)CC4)ccc32)c1 | inconclusive: 14.8 µM [activator, partial curve, poor fit] | –
COc1ccc(-n2cnc3cc(C(=O)N4CCCCC4)ccc32)cc1 | active: 0.662 µM | –
Cc1cccc(-n2cnc3cc(C(=O)N4CCCC(C(F)(F)F)C4)ccc32)c1 (stereo not given) | active: 1.32 µM | –
CC(C)(C)n1cnc2cc(C(=O)N3CCCCC3)ccc21 | active: 2.09 µM | –
CCCCNC(=O)c1ccc2c(c1)ncn2-c1cccc(C)c1 | inconclusive: 0.935 µM [activator, full curve, poor fit] | –
N#Cc1ccccc1CCc1nc2ncc(Br)cc2[nH]1 | – | inconclusive: 311% [activator]
COc1ccccc1-n1cnc2cc(C(=O)N3CCCCC3)ccc21 | active: 16.6 µM | –
CCCCC/C=C/C=C1/C(=O)C=C[C@@H]1C/C=C\CCCC(=O)O | inconclusive: 41.8 µM [activator, partial curve, poor fit] | –
Cc1cccc(-n2cnc3cc(C(=O)N4CCCCC4)ccc32)c1 | inconclusive: 0.118 µM [activator, full curve, poor fit] | –
Cc1cccc(-n2cnc3cc(C(=O)N4CCC(N5CCOCC5)CC4)ccc32)c1 | inconclusive: 187 µM [activator, partial curve, poor fit] | –
O=C(c1ccc2c(c1)ncn2-c1ccc(C(F)(F)F)cc1)N1CCCCC1 | inconclusive: 18.7 µM [activator, partial curve, poor fit] | –
Cc1cccc(-n2cnc3cc(C(=O)N4CCCC(C)(C)C4)ccc32)c1 | active: 0.743 µM | –
Cc1cccc(-n2cnc3cc(C(=O)N4CCOCC4)ccc32)c1 | inconclusive: 7.43 µM [activator, full curve, poor fit] | –
Cc1cc(-c2nnc3n2CCCCCCC3)c(C)n1-c1ccccc1 | inconclusive: 5.26 µM [activator, full curve, poor fit] | –
CCCCC[C@H](O)/C=C/[C@H]1[C@H](O)CC(=O)[C@@H]1C/C=C\CCCC(=O)O | active: 0.148 µM | –
Clc1ccc(CSc2nc3ncc(Br)cc3[nH]2)cc1Cl | inconclusive: 0.935 µM [activator, full curve, poor fit] | –
c1ccc(-n2cc(-c3nnc4n3CCCCC4)cn2)cc1 | inconclusive: 0.0209 µM [activator, full curve, poor fit] | –
Cc1cccc(-n2cnc3cc(C(=O)N4CCN(C)CC4)ccc32)c1 | inconclusive: 16.6 µM [activator, partial curve, poor fit] | –
Cc1cccc(-n2cnc3cc(C(=O)N4CCC(C#N)CC4)ccc32)c1 | – | inconclusive: 434% [activator]
Cc1cccc(-n2cnc3cc(C(=O)NC(C)(C)C)ccc32)c1 | inconclusive: 41.8 µM [activator, partial curve, poor fit] | –

SMILES | Potency | PGE2 level, % of control
Cc1cc(-c2nnc3n2CCCCCC3)c(C)n1-c1ccccc1 | inconclusive: 18.7 µM [activator, partial curve, poor fit] | –
CCOC(=O)c1ccc(-n2c(C)cc(-c3nnc4n3CCCCC4)c2C)cc1 | inconclusive: 37.2 µM [activator, partial curve, poor fit] | –
Cc1cccc(-n2cnc3cc(C(=O)N4CCCC(c5ccccc5)C4)ccc32)c1 (stereo not given) | inconclusive: 10.5 µM [activator, partial curve, poor fit] | –
Cc1cc(-c2nnc3n2CCCCC3)c(C)n1-c1ccc(F)cc1 | active: 0.662 µM | –
O=C(c1ccc2c(c1)ncn2-c1ccc(Cl)cc1)N1CCCCC1 | inconclusive: 1.66 µM [activator, full curve, poor fit] | –
Cc1cc(-c2nnc3n2CCCCC3)c(C)n1-c1ccc(C(F)(F)F)cc1 | active: 0.833 µM | –
Cc1cc(-c2nnc3n2CCCCC3)c(C)n1-c1ccc(C#N)cc1 | inconclusive: 10.5 µM [activator, partial curve, poor fit] | –
Cc1cccc(-n2cnc3cc(C(=O)NC4CCCCC4)ccc32)c1 | – | inconclusive: 270% [activator]
N#Cc1ccccc1CNc1nc2ncc(Br)cc2[nH]1 | inconclusive: 0.0372 µM [activator, full curve, poor fit] | –
FC(F)(F)c1cccc(CSc2nc3ncc(Br)cc3[nH]2)c1 | inconclusive: 7.43 µM [activator, partial curve, poor fit] | –
CC(C)(C)c1ccc(CSc2nc3ncc(Br)cc3[nH]2)cc1 | inconclusive: 0.332 µM [activator, full curve, poor fit] | –
Cc1cc(-c2nnc3n2CCCCC3)c(C)n1-c1ccc(Cl)c(Cl)c1 | inconclusive: 0.296 µM [activator, full curve, poor fit] | –
Cc1cc(-c2nnc3n2CCCC3)c(C)n1-c1ccccc1 | inconclusive: 0.0047 µM [activator, full curve, poor fit] | –
O=C(Nc1cc(C(F)(F)F)cc(C(F)(F)F)c1)c1cc(Cl)ccc1O | – | inconclusive: 192% [activator]
Cc1cccc(-n2cnc3cc(C(=O)NC4CCCC4)ccc32)c1 | inconclusive: 0.003 µM [activator, full curve, poor fit] | –
CC(C)c1cccc(-n2cnc3cc(C(=O)N4CCCCC4)ccc32)c1 | active: 2.35 µM | –
Clc1ccccc1CSc1nc2ncc(Br)cc2[nH]1 | inconclusive: 23.5 µM [activator, partial curve, poor fit] | –
O=[N+]([O-])c1ccc(CSc2nc3ncc(Br)cc3[nH]2)cc1 | active: 0.235 µM | –
Cc1cccc(-n2cnc3cc(C(=O)N4CCC(Cc5ccccc5)CC4)ccc32)c1 | inconclusive: 0.0001 µM [activator] | –
Cc1cccc(-n2cnc3cc(C(=O)N4CCC(c5ccccc5)CC4)ccc32)c1 | inconclusive: 33.2 µM [activator, partial curve, poor fit] | –

3 compounds already listed, arranged by formula weight, smallest number first.
SMILES | Potency | PGE2 level, % of control
CC(C)(C)c1ccc(CSc2nc3ncc(Br)cc3[nH]2)cc1 | inconclusive: 0.332 µM [activator, full curve, poor fit] | –
FC(F)(F)c1cccc(CSc2nc3ncc(Br)cc3[nH]2)c1 | inconclusive: 7.43 µM [activator, partial curve, poor fit] | –
Cc1cccc(-n2cnc3cc(C(=O)N4CCC(Cc5ccccc5)CC4)ccc32)c1 | inconclusive: 0.0001 µM [activator] | –

Reference: PubChem BioAssay AID743167 (National Center for Advancing Translational Sciences (NCATS), 2013)
